From PubChem BioAssay AID280 (DTP/NCI, 2004) come the findings set out here.

Each structure is given as a SMILES string. The list shows only some results of the screen, not a fair sample: it is rich in T/C values a quarter to a half above the control, in often repeated tests (any T/C) and in doses without a T/C. Further doses and runs are listed elsewhere. T/C is the treated group as % of the vehicle group. Some entries give survivors of the animals treated and no T/C: the source files T/C as zero there, which appears to mark a toxic dose or a test without result, not a measured value. Some survivor counts are full or nearly so, which does not show that the dose was tolerated: survival well below the control is almost never listed, so the zero probably covers shortened survival too. Survivors were counted at the toxicity check, usually on the fifth day, unless a day is given; later deaths do not show. Schedule codes are those of the source, taken here to give the interval after Q, in days (D) or hours (H), and the number of doses after X. Some doses were run more than once; their values stand side by side, smallest first. Where survival is the endpoint, this PubChem deposit counts one and a half times the control or more as active, and values a quarter to a half above the control carry no call in these data; other NCI protocols may use other cut-offs. Some T/C values carry the count of animals alive at the toxicity check (mostly the fifth day); without a count, all were alive then.

The assay deals with nude mice, LOX melanoma ip, survival T/C. As to the kind of experiment: NCI In Vivo Anticancer Drug Screen. Data for tumor model Human Amelanotic Melanoma (LOX) (intraperitoneal) in NU/NU BALB/C (nude) mice. As to conditions: T/C endpoint: median survival time, higher T/C = longer survival. The protocol:
The antitumor activity of compounds was measured in mice bearing transplantable tumors. Survival or tumor size were measured and the results are expressed as the measurement made in the treated group (T) divided by the measurement made in the vehicle treated control group (C). The tumor model used in this assay is Human Amelanotic Melanoma (LOX) (intraperitoneal) in NU/NU BALB/C (nude) mice

Where [1] appears, read: dose: 75.0 mg/kg/injection, schedule: Q04DX003 (ip), vehicle: Klucel (hydroxypropylcellulose) (HPC).
The mark [2] stands for this setting: dose: 300.0 mg/kg/injection, schedule: Q04DX003 (ip), vehicle: Klucel (hydroxypropylcellulose) (HPC).
Setting [3] is: dose: 1200.0 mg/kg/injection, schedule: Q04DX003 (ip), vehicle: Klucel (hydroxypropylcellulose) (HPC).
The mark [4] stands for this setting: dose: 200.0 mg/kg/injection, schedule: Q04DX003 (ip), vehicle: saline with Tween-80.
Where [5] appears, read: dose: 200.0 mg/kg/injection, schedule: Q04DX003 (ip), vehicle: Klucel (hydroxypropylcellulose) (HPC).
[6] abbreviates: dose: 25.0 mg/kg/injection, schedule: Q04DX003 (ip), vehicle: saline with Tween-80.
Where [7] appears, read: dose: 400.0 mg/kg/injection, schedule: Q04DX003 (ip), vehicle: Klucel (hydroxypropylcellulose) (HPC).
Setting [8] is: dose: 600.0 mg/kg/injection, schedule: Q04DX003 (ip), vehicle: suspension in saline.

`CCOC1NC(=O)Oc2ccccc21` (stereo not given): the T/C was 132 % of control [5 of 6 alive on day 10] under setting [1]; 127 % of control (dose: 150.0 mg/kg/injection, schedule: Q04DX003 (ip), vehicle: Klucel (hydroxypropylcellulose) (HPC)); 132 % of control [5 of 6 alive on day 10] under setting [2]; 125 % of control [5 of 6 alive on day 10] (dose: 600.0 mg/kg/injection, schedule: Q04DX003 (ip), vehicle: Klucel (hydroxypropylcellulose) (HPC)). For the same compound, the survivor count under setting [3] was 0 of 6 on day 10.

On to `CC(/C=C/C=C/C=C/C=C/C=C/C(O)=C1/C(=O)C(CCC(=O)O)N(C)C1=O)=C\C(C)C(OC1CC(O)C(O)C(C)O1)C(C)C` (stereo not given), for which the T/C reads like this: (dose: 4.0 mg/kg/injection, schedule: Q04DX003 (ip), vehicle: water) 143 % of control; (dose: 8.0 mg/kg/injection, schedule: Q04DX003 (ip), vehicle: water) 125 % of control; (dose: 23.0 mg/kg/injection, schedule: Q04DX003 (ip), vehicle: water) 139 % of control; (dose: 38.0 mg/kg/injection, schedule: Q04DX003 (ip), vehicle: water) 138 % of control.

For the compound `Cc1cc(=NO)cc(C)n1O`, the survivor count (dose: 1200.0 mg/kg/injection, schedule: Q04DX003 (ip), vehicle: distilled water + alcohol) is listed as 1 of 6 on day 10.

With `CC1c2ccccc2CC(CCN(C)C)c2ccccc21` (stereo not given), the survivor count under setting [4] is recorded as 0 of 6 on day 10.

For the compound `Cc1ccc(C2=CSC3=NCCN23)cc1Cl`, the survivor count was 0 of 6 on day 10 (dose: 100.0 mg/kg/injection, schedule: Q04DX003 (ip), vehicle: Klucel (hydroxypropylcellulose) (HPC)) and 0 of 6 on day 10 under setting [5].

In the case of `COc1cccc2c1[C@H]1CO[C@H]3C4C[C@H](C(=O)O)C([C@@H](C2)N13)N4C` (stereo not given in full), the T/C (dose: 2.5 mg/kg/injection, schedule: Q04DX003 (ip), vehicle: water) was 126 [5 of 6 alive on day 10] and 138 % of control; the T/C (dose: 5.0 mg/kg/injection, schedule: Q04DX003 (ip), vehicle: water) is 146 % of control; the T/C (dose: 10.0 mg/kg/injection, schedule: Q04DX003 (ip), vehicle: water) was 147 % of control. The survivor count (dose: 40.0 mg/kg/injection, schedule: Q04DX003 (ip), vehicle: water) was 2 of 6 on day 10.

On to `CCCCOCN(COCCCC)C12CC3CC(CC(C3)C1)C2`, for which the survivor count (dose: 800.0 mg/kg/injection, schedule: Q04DX003 (ip), vehicle: saline with Tween-80) is listed as 0 of 6 on day 10.

As for `S=C(N/N=C1/CCCC/C1=N/NC(=S)N1CCOCC1)N1CCOCC1`, the T/C under setting [6] is 138 % of control [5 of 6 alive on day 10]. In addition, the survivor count (dose: 50.0 mg/kg/injection, schedule: Q04DX003 (ip), vehicle: saline with Tween-80) is listed as 3 of 6 on day 10.

Turning to `COC(=O)c1ccc(N=NN(C)COC(C)=O)cc1`, under “dose: 60.0 mg/kg/injection, schedule: Q04DX003 (ip), vehicle: Klucel (hydroxypropylcellulose) (HPC)”, the T/C is 129 % of control. The survivor count was 3 of 6 on day 10 under setting [7] and 4 of 6 on day 10 (dose: 480.0 mg/kg/injection, schedule: Q04DX003 (ip), vehicle: Klucel (hydroxypropylcellulose) (HPC)).

Turning to `Cc1cccc(OCC(O)CN2CC2)c1` (stereo not given), the T/C is 128 % of control under setting [6]; 128 % of control (dose: 100.0 mg/kg/injection, schedule: Q04DX003 (ip), vehicle: saline with Tween-80); 145 % of control under setting [4]. In addition, the survivor count (dose: 400.0 mg/kg/injection, schedule: Q04DX003 (ip), vehicle: saline with Tween-80) was 0 of 6 on day 10 and 1 of 6 on day 10.

For `N=C(N)SCc1cccc2c(=O)cc(-c3ccccc3)oc12`, under “dose: 200.0 mg/kg/injection, schedule: Q04DX003 (ip), vehicle: suspension in saline”, the T/C was 134 % of control.

For the compound `COc1cc2c[n+](C)c3c(c2cc1OC)Cc1cc2c(cc1-3)OCO2`, the T/C is 130 % of control (dose: 37.5 mg/kg/injection, schedule: Q04DX003 (ip), vehicle: saline with Tween-80) and 147 % of control (dose: 75.0 mg/kg/injection, schedule: Q04DX003 (ip), vehicle: saline with Tween-80). Further, the survivor count (dose: 300.0 mg/kg/injection, schedule: Q04DX003 (ip), vehicle: saline with Tween-80) was 2 of 6 on day 10.

Consider `Nc1nc2n[nH]nc2c(=O)[nH]1`, for which, under setting [8], the survivor count is on record as 0 of 6 on day 10.

For the compound `COc1ccc(OC)c(Cc2cnc3nc(N)nc(N)c3c2C)c1`, the survivor count by setting is: (dose: 120.0 mg/kg/injection, schedule: Q04DX003 (ip), vehicle: water) 2 of 6 on day 10; (dose: 150.0 mg/kg/injection, schedule: Q04DX003 (ip), vehicle: water) 2 of 6 on day 10; (dose: 300.0 mg/kg/injection, schedule: Q04DX003 (ip), vehicle: water) 1 of 6 on day 10; (dose: 600.0 mg/kg/injection, schedule: Q04DX003 (ip), vehicle: water) 0 of 6 on day 10.

As for `COc1ccc(S(=O)(=O)N=N/C=C2\C=CC=CN2O)cc1OC`, the T/C was 137 % of control [5 of 6 alive on day 10] (dose: 90.0 mg/kg/injection, schedule: Q04DX003 (ip), vehicle: saline with Tween-80) and 137 % of control (dose: 150.0 mg/kg/injection, schedule: Q04DX003 (ip), vehicle: saline with Tween-80).

As to `O=C1CNC(=O)N1CN1CCOCC1`, the T/C under setting [1] is 132 % of control, the T/C under setting [2] is 145 % of control and the T/C under setting [3] is 139 % of control [5 of 6 alive on day 10].

In the case of `COc1cc(C2=NCCc3cc4c(cc32)OCO4)cc(OC)c1OC`, the survivor count (dose: 300.0 mg/kg/injection, schedule: Q04DX003 (ip), vehicle: saline + alcohol) is on record as 1 of 6 on day 10.

As to `CC(C)NC(=O)OCc1c(COC(=O)NC(C)C)c(-c2ccc(Cl)c(Cl)c2)n2c1CCC2`, the survivor count (dose: 600.0 mg/kg/injection, schedule: Q04DX003 (ip), vehicle: saline with Tween-80) is 3 of 6 on day 10 and the survivor count (dose: 1200.0 mg/kg/injection, schedule: Q04DX003 (ip), vehicle: saline with Tween-80) is 4 of 6 on day 10.

Regarding `O=C(O)CCCc1ccc(N(CCCl)CCCl)cc1`, the survivor count (dose: 0.13 mg/kg/injection, schedule: Q04DX003 (ip), vehicle: Klucel (hydroxypropylcellulose) (HPC)) was 6 of 6 on day 10 and the survivor count (dose: 40.0 mg/kg/injection, schedule: Q04DX003 (ip), vehicle: Klucel (hydroxypropylcellulose) (HPC)) is reported as 6 of 6 on day 14. The T/C is 138 and 146 % of control (dose: 12.0 mg/kg/injection, schedule: Q04DX003 (ip), vehicle: Klucel (hydroxypropylcellulose) (HPC)); 144 % of control (dose: 27.0 mg/kg/injection, schedule: Q01DX001 (ip), vehicle: Klucel (hydroxypropylcellulose) (HPC)).

Consider `C=CC1(C)CC(=O)C2(O)C(C)(O1)C(OC(C)=O)C(O)C1C(C)(C)CCC(O)C12C` (stereo not given), for which the survivor count (dose: 128.0 mg/kg/injection, schedule: Q04DX003 (ip), vehicle: DMSO) was 2 of 6 on day 10.

Turning to `CC1=NN(c2cccc(S(=O)(=O)O)c2)C(=O)C1N=Nc1cc(Cl)cc(S(=O)(=O)O)c1O.CC1=NN(c2cccc(S(=O)(=O)O)c2)C(=O)C1N=Nc1cc(Cl)cc(S(=O)(=O)O)c1O.[Cr]` (stereo not given), the survivor count under setting [8] is given as 0 of 6 on day 10 and the survivor count (dose: 1200.0 mg/kg/injection, schedule: Q04DX003 (ip), vehicle: suspension in saline) was 0 of 6 on day 10.

On to `COc1cc2c(cc1OC)-c1c3c(cc4c1[C@@H](C2)N(C)CC4)OCO3`, for which the T/C (dose: 54.0 mg/kg/injection, schedule: Q04DX003 (ip), vehicle: distilled water + Tween-80 + alcohol) is 132 % of control. The survivor count (dose: 250.0 mg/kg/injection, schedule: Q04DX003 (ip), vehicle: distilled water + Tween-80 + alcohol) is on record as 1 of 6 on day 10.

Take `O=c1[nH]cnc2c1cnn2CN1CCOCC1`: the survivor count under setting [5] is recorded as 2 of 6 on day 10 and the survivor count under setting [7] is given as 0 of 6 on day 10.
